Data: paper PMC3371017
The exact form of at least one protein or probe is not confirmed. At least one result comes from cells or an extract, where the contact may be indirect. For some of these results: At least one verdict rests on a figure or table, not on a statement of the authors.

The chains behind the UniProt entries cited, without tags or fusion partners. Where a name states a change or a piece, a line headed by the entry shows the natural chain unless it says otherwise.
UniProt P19838: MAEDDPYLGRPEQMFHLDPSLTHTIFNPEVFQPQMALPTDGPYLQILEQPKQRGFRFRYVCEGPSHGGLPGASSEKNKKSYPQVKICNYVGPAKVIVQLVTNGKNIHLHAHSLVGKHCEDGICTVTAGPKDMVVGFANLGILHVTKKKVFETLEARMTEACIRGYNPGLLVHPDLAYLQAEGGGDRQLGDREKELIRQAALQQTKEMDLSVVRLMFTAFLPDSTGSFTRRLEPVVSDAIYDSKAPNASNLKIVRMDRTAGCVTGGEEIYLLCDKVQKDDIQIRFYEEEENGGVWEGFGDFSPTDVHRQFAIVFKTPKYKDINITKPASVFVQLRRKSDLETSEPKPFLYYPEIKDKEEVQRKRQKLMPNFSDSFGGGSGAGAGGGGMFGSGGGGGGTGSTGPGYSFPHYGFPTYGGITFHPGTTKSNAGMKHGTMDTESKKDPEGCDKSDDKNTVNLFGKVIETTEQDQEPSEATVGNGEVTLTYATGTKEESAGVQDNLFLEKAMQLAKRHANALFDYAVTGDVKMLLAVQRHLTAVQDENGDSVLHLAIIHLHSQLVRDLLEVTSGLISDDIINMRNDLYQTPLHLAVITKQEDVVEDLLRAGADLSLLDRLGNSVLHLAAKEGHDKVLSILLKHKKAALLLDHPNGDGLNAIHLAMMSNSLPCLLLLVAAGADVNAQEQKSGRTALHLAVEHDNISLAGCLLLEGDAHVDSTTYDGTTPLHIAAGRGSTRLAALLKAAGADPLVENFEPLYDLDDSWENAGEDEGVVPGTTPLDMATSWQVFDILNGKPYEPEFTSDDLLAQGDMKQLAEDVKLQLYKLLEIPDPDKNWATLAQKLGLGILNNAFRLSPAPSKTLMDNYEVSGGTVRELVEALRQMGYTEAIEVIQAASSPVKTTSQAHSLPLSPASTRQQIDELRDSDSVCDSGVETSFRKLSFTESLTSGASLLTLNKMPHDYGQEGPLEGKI

Key:
[1] = system: p65 (RelA), endogenous + p50 (NF-kB1), endogenous; assay: EMSA, supershift (p65 and p50 antibodies); settings: etoposide-treated; HEK-293 nuclear extracts, 32P probes; pH and temperature not given (as previously described, ref. 48); protein in an extract; label: 32P
[2] = target: p50/p50 homodimer, endogenous (Homo sapiens) (UniProt P19838); assay: EMSA, supershift; settings: p65 siRNA, residual binding; HEK-293 nuclear extracts, 32P probes; pH and temperature not given (as previously described, ref. 48); protein in an extract; label: 32P
[3] = target: HA-p65 S547A (Homo sapiens) (UniProt Q04206); assay: EMSA, supershift (p65 antibody); settings: etoposide-treated; HEK-293 nuclear extracts, 32P probes; pH and temperature not given (as previously described, ref. 48); protein in an extract; residues 1-551; protein details: HA; label: 32P
[4] = target: HA-p65 (RelA) wild type (Homo sapiens) (UniProt Q04206); assay: EMSA, supershift (p65 antibody); settings: etoposide-treated; HEK-293 nuclear extracts, 32P probes; pH and temperature not given (as previously described, ref. 48); protein in an extract; residues 1-551; protein details: HA; label: 32P

Row | Sequence | binding result [1] | binding result [2] | binding result [3] | binding result [4]
1 | GGTTACAAGGGACTTTCCGCTG (double strand) [HIV-1 LTR kB probe] | binds | binds | – | –
2 | GGTTATCGTGGAATTTCCTCTG (double strand) [IL8 promoter kB probe] | – | – | binds | binds
